From publication PMC9266818
No constants are given. Whether binding was seen depends on the method and setting. Binding seen in cells or lysates may run through a third protein. Some entries that bind do so weakly or less than the wild type.

Protein sequences, listed by entry. Tags and fused reporters are not part of them.
UniProt P06493: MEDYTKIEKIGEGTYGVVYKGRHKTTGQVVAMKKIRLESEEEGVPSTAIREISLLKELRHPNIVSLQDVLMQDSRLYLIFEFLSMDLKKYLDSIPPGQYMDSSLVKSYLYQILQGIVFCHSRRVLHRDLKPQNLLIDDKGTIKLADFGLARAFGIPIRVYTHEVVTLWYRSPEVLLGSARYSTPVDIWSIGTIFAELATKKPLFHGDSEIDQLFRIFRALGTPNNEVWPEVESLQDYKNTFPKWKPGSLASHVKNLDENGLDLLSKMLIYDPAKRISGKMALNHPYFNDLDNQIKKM

Target: CDK1 (cyclin-dependent kinase 1), endogenous in UM1 cells (human (endogenous in UM1)) (UniProt P06493)
Assay: co-IP; UM1 cell lysate, endogenous proteins; IP with anti-∆Np63α or anti-CDK1, homologous IgG as controls; immunoblot

- binding: binds
B1: ∆Np63α, endogenous in UM1 cells (protein, UniProt Q9H3D4-2 1-586)
chain: MLYLENNAQTQFSEPQYTNLGLLNSMDQQIQNGSSSTSPYNTDHAQNSVTAPSPYAQPSSTFDALSPSPAIPSNTDYPGPHSFDVSFQQSSTAKSATWTYSTELKKLYCQIAKTCPIQIKVMTPPPQGAVIRAMPVYKKAEHVTEVVKRCPNHELSREFNEGQIAPPSHLIRVEGNSHAQYVEDPITGRQSVLVPYEPPQVGTEFTTVLYNFMCNSSCVGGMNRRPILIIVTLETRDGQVLGRRCFEARICACPGRDRKADEDSIRKQQVSDSTKNGDGTKRPFRQNTHGIQMTSIKKRRSPDDELLYLPVRGRETYEMLLKIKESLELMQYLPQHTIETYRQQQQQQHQHLLQKQTSIQSPSSYGNSSPPLNKMNSMNKLPSVSQLINPQQRNALTPTTIPDGMGANIPMMGTHMPMAGDMNGLSPTQALPPPLSMPSTSHCTPPPPYPTDCSIVSFLARLGCSSCLDYFTTQGLTTIYQIEHYSMDDLASLKIPEQFRHAIWKGILDHRQLHEFSSPSHLLRTPSSASTVSVGSSETRGERVIDAVRFTLRQTISFPPRDEWNDFNFDMDARRNKQQRIKEEGE
